Values of other authors in US20110306564A1, “SOLID COMPOSITION, MICROPARTICLES, MICROPARTICLE DISPERSION LIQUID, AND MANUFACTURING METHODS FOR THESE” (HAMAMATSU PHOTONICS K.K., priority 2007, published 2011).

Details: room temperature

## CC(=O)O[C@H]1C(=O)[C@@]2(C)[C@H]([C@H](OC(=O)c3ccccc3)[C@]3(O)C[C@H](OC(=O)[C@H](O)[C@@H](NC(=O)c4ccccc4)c4ccccc4)C(C)=C1C3(C)C)[C@]1(OC(C)=O)CO[C@@H]1C[C@@H]2O [paclitaxel]
  solubility in water: approximately 0.5 μg/mL
